Data taken from PubChem BioAssay (EPA / NIEHS).
Several values for one entry are separate records, joined by “and”; a condition that tells them apart may be missing. Equal values may be shown once. Inconclusive means that the source gave no clear call. Such entries were picked first, then a sample of the others. For some assays here: A potency beside an inconclusive call is a rough fit, not a confirmed value. The source holds several records for some structures; these can differ, active in one and inactive in another. Activity calls are given as the source filed them. The calls were made as follows: active = hit-call score of the fitted dose curve at least 0.9, where 1 is the maximum; inconclusive = response in the unintended direction; inactive = score below 0.9.

Tests used:
[1] = CCTE_Mundy_HCI_hNP1_Pro_ResponderAvgInten: CCTE's Proliferation Assay in human neuroprogenitor cells, Mundy Lab (AID 2284224);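 also: human neural progenitor cells hNP1 derived from WA09 embryonic stem cells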
Procedure, shortened: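 Proliferation read as average intensity of BrdU-positive cells, imaged at 26.25 h post-dosing: chemical exposure started after 40–44 h culture, BrdU during final 4 h, paraformaldehyde fixation. Positive-direction fit relative to DMSO.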

[2] = CCTE_Mundy_HCI_hNP1_CellTiter: CCTE's Cell Titer-Glo 2 Assay in human neuroprogenitor cells for Viability, Mundy Lab (AID 2284241);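 as to AC50: a hit is a drop in ATP luminescence versus DMSO meaning reduced viability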
Procedure, shortened: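 Viability read as luminescent ATP content (CellTiter-Glo, 30 min room temperature) twenty-four hours after dosing, relative to DMSO. Cells: WA09-derived hNP1 neuroprogenitors on poly-L-ornithine/laminin, plated 40 to 44 hours before chemical.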

[3] = CCTE_Mundy_HCI_Cortical_Synap_Neur_Matur_NeuronCount: CCTE's Synaptogenesis and Neurite Maturation Assay in rat cortical cells for Neuron Count, Mundy Lab (AID 2284242);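 as to AC50: hits reduce neuron count versus DMSO baseline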
Procedure, shortened: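 Measured at DIV 12: fluorescently labelled neurons (Hoechst nuclei, MAP2) in rat primary cortical cultures, counted by high-content imaging. AraC suppressed glia from DIV 5; DMSO served as negative control.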

[4] = TAMU_HCS_1.5hr_SingleDonor1434_Cytotoxicity: Cytotoxicity Assessment using High-content Screening (HCS) Fluorescent Imaging for the Texas A&M University (TAMU) 1.5-hr Human Induced Pluripotent Stem Cell (iPSC)-derived Cardiotoxicity Assay (AID 2284234)
Procedure, shortened: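 Nuclear counts from Hoechst 33342 imaging define cytotoxicity here, with EC10 (10% cell-count loss relative to DMSO) as point of departure. iPSC cardiomyocytes received 0.2-100 uM test chemical in 0.5% DMSO for 1.5 h at 37 C.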

[5] = CCTE_Shafer_MEA_acute_LDH: CCTE's Lactate Dehydrogenase Assay for Cytotoxicity in the Neural Acute Assay, Shafer Lab (AID 2284086);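 also: active means LDH release rises above DMSO vehicle level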
Procedure, shortened: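 Cytotoxicity readout: spectrophotometric LDH activity in supernatant of rat primary cortical neurons, post-plating day 13 or 15, sampled after 40 min compound exposure; signal gain relative to DMSO baseline.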

For Nc1ncn([C@@H]2O[C@H](CO)[C@@H](O)[C@H]2O)c(=O)n1, the AC50 [1] was inconclusive: 25 µM and active: 8.32 µM, the AC50 [2] was active: 2.78 µM and the AC50 [3] was inconclusive: 0.00159 µM. For the same compound, the outcome [3] was “inactive”.
With O=C(O)CCCC[C@@H]1SC[C@@H]2NC(=O)N[C@@H]21 the AC50 [4] was inconclusive: 50 µM.
In the case of c1ccc2cc3c(ccc4ccccc43)cc2c1, the AC50 [4] is reported as inconclusive: 50 µM.
For OCC(F)(F)C(F)(F)C(F)(F)C(F)F, the AC50 [1] was inconclusive: 0.0016 µM.
In the case of OCCCC(F)(F)C(F)(F)C(F)(F)C(F)(F)C(F)(F)C(F)(F)C(F)(F)F, the AC50 [1] is reported as inconclusive: 15 µM.
In the case of Nc1nc(=S)c2[nH]cnc2[nH]1, the outcome [5] is reported as “inactive” and the AC50 [4] is reported as inconclusive: 0.137 µM.
For Oc1cc2ccccc2c2ccccc12, the AC50 [5] was inconclusive: 0.873 µM.
With COC(=O)c1ccc(O)cc1 the outcome [4] was “inactive”.
With O=C(O)CCC(F)(F)C(F)(F)C(F)(F)C(F)(F)C(F)(F)C(F)(F)C(F)(F)F the AC50 [1] was inconclusive: 5 µM.
With CC(C)C(=O)Nc1ccc([N+](=O)[O-])c(C(F)(F)F)c1 the outcome [4] was “inactive”.
In the case of FC(F)(F)C(F)(F)C(F)(F)CI, the AC50 [1] is reported as inconclusive: 15 µM.
For OCCCCC(F)(F)C(F)(F)C(F)(F)C(F)(F)F, the outcome [1] was “inactive” and the outcome [2] was “inactive”.
With CCc1nc(N)nc(N)c1-c1ccc(Cl)cc1 the AC50 [4] was inconclusive: 50 µM.
For O=P(O)(O)CCC(F)(F)C(F)(F)C(F)(F)C(F)(F)C(F)(F)C(F)(F)C(F)(F)C(F)(F)F, the AC50 [1] was inconclusive: 15 µM.
With Nc1ccn([C@@H]2O[C@H](CO)[C@@H](O)C2O)c(=O)n1 (stereo not given in full) the AC50 [1] was active: 0.0896 µM.
